Laboratory results reported in patent US20240092918A1.
Results are given in words; binding and its absence hold for the method and conditions named. Some entries that bind do so weakly or less than the wild type.

The chains behind the UniProt entries cited, without tags or fusion partners. Where a name states a change or a piece, a line headed by the entry shows the natural chain unless it says otherwise.
UniProt P32248: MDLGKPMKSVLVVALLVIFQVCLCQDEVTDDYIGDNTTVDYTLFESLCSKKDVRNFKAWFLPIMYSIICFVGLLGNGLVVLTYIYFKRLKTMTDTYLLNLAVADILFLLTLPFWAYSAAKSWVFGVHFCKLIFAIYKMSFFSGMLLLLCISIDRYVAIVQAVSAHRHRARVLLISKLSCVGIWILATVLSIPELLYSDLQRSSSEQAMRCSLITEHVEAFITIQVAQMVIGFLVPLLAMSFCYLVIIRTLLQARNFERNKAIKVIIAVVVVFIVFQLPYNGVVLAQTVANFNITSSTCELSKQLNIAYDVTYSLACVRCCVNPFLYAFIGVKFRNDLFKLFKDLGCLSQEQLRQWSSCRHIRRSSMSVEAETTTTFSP

Molecular target: Human CCR7 (human) (UniProt P32248)
Test: FACS on CCR7-carrying cells

B1: 121G12.CysMab.AURIX1 (antibody, human IgG1, kappa, V domains shown)
VH: EVQLVESGGGLVKPGGSLKLSCAASGFTFSTYAMSWVRQTPEKRLEWVATISDGGSYSYYPDNVKGRFTISRDNAKNNLYLQMSHLKSEDTAMYYCARRGSRYEEYYVMDYWGQGTSVTVSS
VL: DIVLTQSPATLSVTPGDSVSLSCRASQSISNNLHWYQQKSHESPKLLIKYASQSISGIPSRFSGSGSGTDFTLSINSVETEDFGMYFCQQSNSWLTFGAGTKLGLKR
modifications: AURIX1 on the engineered cysteines; DAR 3.80
binding: binds
